Test results reported in article PMC7950214.
Results are given in words; binding and its absence hold for the method and conditions named. Binding calls can cover weak binding; strength is not graded here. For part of these data: Sequences can lack the tags named with a protein. For part of these data: In cells and extracts the contact can be indirect.

T1: nGFP-MAX2 (Arabidopsis thaliana) (UniProt Q9SIM9)
T1 sequence: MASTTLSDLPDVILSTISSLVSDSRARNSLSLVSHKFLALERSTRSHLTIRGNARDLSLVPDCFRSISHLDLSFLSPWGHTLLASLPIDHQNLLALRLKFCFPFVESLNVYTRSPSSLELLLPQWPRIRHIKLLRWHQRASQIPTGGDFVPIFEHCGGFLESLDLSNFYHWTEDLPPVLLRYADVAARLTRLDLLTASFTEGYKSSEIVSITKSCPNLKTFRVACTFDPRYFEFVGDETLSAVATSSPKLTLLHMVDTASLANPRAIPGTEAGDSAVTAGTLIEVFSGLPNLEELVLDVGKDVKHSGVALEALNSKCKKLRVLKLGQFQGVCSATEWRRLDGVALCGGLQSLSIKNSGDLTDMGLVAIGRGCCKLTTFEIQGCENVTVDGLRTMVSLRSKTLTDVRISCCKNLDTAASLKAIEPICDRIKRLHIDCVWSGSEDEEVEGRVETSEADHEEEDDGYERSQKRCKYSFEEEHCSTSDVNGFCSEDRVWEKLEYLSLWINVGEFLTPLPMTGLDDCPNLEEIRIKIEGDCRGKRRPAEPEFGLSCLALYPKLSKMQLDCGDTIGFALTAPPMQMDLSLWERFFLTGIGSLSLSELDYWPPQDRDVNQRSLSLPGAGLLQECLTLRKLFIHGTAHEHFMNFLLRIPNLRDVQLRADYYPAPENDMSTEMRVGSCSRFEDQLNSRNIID


Columns and labels:
[1] = target: T1, nGFP-MAX2 (Arabidopsis thaliana); assay: split reporter; BiFC with nGFP and cGFP fusions (35S promoter) coexpressed in N. benthamiana leaves; confocal microscopy
[2] = target: PAPP5-BD (PAPP5 as yeast two-hybrid bait in pGILDA) (Arabidopsis thaliana); assay: two-hybrid; LexA-based; bait in pGILDA, prey in pB42AD, S. cerevisiae EGY48; blue colonies on SD Gal/Raf -Ura-Trp-His with X-Gal; 10 μM rac-GR24 or 0.1% acetone in the medium to test its influence
[3] = target: PAPP5-GFP (Arabidopsis thaliana); assay: co-IP; GFP-Trap-A on extracts of N. benthamiana leaves coexpressing the GFP and 3HA fusions; washes with 150 mM NaCl, 0.5% NP-40; anti-HA blot; leaves mock treated or injected with 10 μM rac-GR24

Molecule	binding [2]	other results
cGFP-PAPP5 (Arabidopsis thaliana) (enzyme)	–	binding [1]: binds
MAX2ΔFBOX-AD (MAX2ΔFBOX as yeast two-hybrid prey in pB42AD) (domain or fragment, UniProt Q9SIM9 54-693) ARDLSLVPDCFRSISHLDLSFLSPWGHTLLASLPIDHQNLLALRLKFCFPFVESLNVYTRSPSSLELLLPQWPRIRHIKLLRWHQRASQIPTGGDFVPIFEHCGGFLESLDLSNFYHWTEDLPPVLLRYADVAARLTRLDLLTASFTEGYKSSEIVSITKSCPNLKTFRVACTFDPRYFEFVGDETLSAVATSSPKLTLLHMVDTASLANPRAIPGTEAGDSAVTAGTLIEVFSGLPNLEELVLDVGKDVKHSGVALEALNSKCKKLRVLKLGQFQGVCSATEWRRLDGVALCGGLQSLSIKNSGDLTDMGLVAIGRGCCKLTTFEIQGCENVTVDGLRTMVSLRSKTLTDVRISCCKNLDTAASLKAIEPICDRIKRLHIDCVWSGSEDEEVEGRVETSEADHEEEDDGYERSQKRCKYSFEEEHCSTSDVNGFCSEDRVWEKLEYLSLWINVGEFLTPLPMTGLDDCPNLEEIRIKIEGDCRGKRRPAEPEFGLSCLALYPKLSKMQLDCGDTIGFALTAPPMQMDLSLWERFFLTGIGSLSLSELDYWPPQDRDVNQRSLSLPGAGLLQECLTLRKLFIHGTAHEHFMNFLLRIPNLRDVQLRADYYPAPENDMSTEMRVGSCSRFEDQLNSRNIID	binds	–
MAX2-3HA (protein, UniProt Q9SIM9 1-693) MASTTLSDLPDVILSTISSLVSDSRARNSLSLVSHKFLALERSTRSHLTIRGNARDLSLVPDCFRSISHLDLSFLSPWGHTLLASLPIDHQNLLALRLKFCFPFVESLNVYTRSPSSLELLLPQWPRIRHIKLLRWHQRASQIPTGGDFVPIFEHCGGFLESLDLSNFYHWTEDLPPVLLRYADVAARLTRLDLLTASFTEGYKSSEIVSITKSCPNLKTFRVACTFDPRYFEFVGDETLSAVATSSPKLTLLHMVDTASLANPRAIPGTEAGDSAVTAGTLIEVFSGLPNLEELVLDVGKDVKHSGVALEALNSKCKKLRVLKLGQFQGVCSATEWRRLDGVALCGGLQSLSIKNSGDLTDMGLVAIGRGCCKLTTFEIQGCENVTVDGLRTMVSLRSKTLTDVRISCCKNLDTAASLKAIEPICDRIKRLHIDCVWSGSEDEEVEGRVETSEADHEEEDDGYERSQKRCKYSFEEEHCSTSDVNGFCSEDRVWEKLEYLSLWINVGEFLTPLPMTGLDDCPNLEEIRIKIEGDCRGKRRPAEPEFGLSCLALYPKLSKMQLDCGDTIGFALTAPPMQMDLSLWERFFLTGIGSLSLSELDYWPPQDRDVNQRSLSLPGAGLLQECLTLRKLFIHGTAHEHFMNFLLRIPNLRDVQLRADYYPAPENDMSTEMRVGSCSRFEDQLNSRNIID	–	binding [3]: binds
KAI2-AD (KAI2 as yeast two-hybrid prey in pB42AD) (receptor, UniProt Q9SZU7 1-270) MGVVEEAHNVKVIGSGEATIVLGHGFGTDQSVWKHLVPHLVDDYRVVLYDNMGAGTTNPDYFDFDRYSNLEGYSFDLIAILEDLKIESCIFVGHSVSAMIGVLASLNRPDLFSKIVMISASPRYVNDVDYQGGFEQEDLNQLFEAIRSNYKAWCLGFAPLAVGGDMDSIAVQEFSRTLFNMRPDIALSVGQTIFQSDMRQILPFVTVPCHILQSVKDLAVPVVVSEYLHANLGCESVVEVIPSDGHLPQLSSPDSVIPVILRHIRNDIAM	no binding	–

More lines, main results first:

binding [2]	Molecule	other results
binds	MAX2-AD (MAX2 as yeast two-hybrid prey in pB42AD) (protein, UniProt Q9SIM9 1-693) MASTTLSDLPDVILSTISSLVSDSRARNSLSLVSHKFLALERSTRSHLTIRGNARDLSLVPDCFRSISHLDLSFLSPWGHTLLASLPIDHQNLLALRLKFCFPFVESLNVYTRSPSSLELLLPQWPRIRHIKLLRWHQRASQIPTGGDFVPIFEHCGGFLESLDLSNFYHWTEDLPPVLLRYADVAARLTRLDLLTASFTEGYKSSEIVSITKSCPNLKTFRVACTFDPRYFEFVGDETLSAVATSSPKLTLLHMVDTASLANPRAIPGTEAGDSAVTAGTLIEVFSGLPNLEELVLDVGKDVKHSGVALEALNSKCKKLRVLKLGQFQGVCSATEWRRLDGVALCGGLQSLSIKNSGDLTDMGLVAIGRGCCKLTTFEIQGCENVTVDGLRTMVSLRSKTLTDVRISCCKNLDTAASLKAIEPICDRIKRLHIDCVWSGSEDEEVEGRVETSEADHEEEDDGYERSQKRCKYSFEEEHCSTSDVNGFCSEDRVWEKLEYLSLWINVGEFLTPLPMTGLDDCPNLEEIRIKIEGDCRGKRRPAEPEFGLSCLALYPKLSKMQLDCGDTIGFALTAPPMQMDLSLWERFFLTGIGSLSLSELDYWPPQDRDVNQRSLSLPGAGLLQECLTLRKLFIHGTAHEHFMNFLLRIPNLRDVQLRADYYPAPENDMSTEMRVGSCSRFEDQLNSRNIID	–
no binding	D14-AD (D14 as yeast two-hybrid prey in pB42AD) (receptor, UniProt Q9SQR3 1-267) MSQHNILEALNVRVVGTGDRILFLAHGFGTDQSAWHLILPYFTQNYRVVLYDLVCAGSVNPDYFDFNRYTTLDPYVDDLLNIVDSLGIQNCAYVGHSVSAMIGIIASIRRPELFSKLILIGFSPRFLNDEDYHGGFEEGEIEKVFSAMEANYEAWVHGFAPLAVGADVPAAVREFSRTLFNMRPDISLFVSRTVFNSDLRGVLGLVRVPTCVIQTAKDVSVPASVAEYLRSHLGGDTTVETLKTEGHLPQLSAPAQLAQFLRRALPR	–
